Experimental data: paper PMC11312917
No constants are given. Whether binding was seen depends on the method and setting. Some entries that bind do so weakly or less than the wild type. For some assays here: Tags and fused reporters may be left off the sequences shown.

Sequences of proteins named here, by UniProt entry; tags and fusion partners are left off. Residues count along the entry.
UniProt O43639, residues 285-380: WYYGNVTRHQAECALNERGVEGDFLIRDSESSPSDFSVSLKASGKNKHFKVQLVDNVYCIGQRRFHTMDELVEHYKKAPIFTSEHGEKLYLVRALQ
UniProt P00519, residues 127-217: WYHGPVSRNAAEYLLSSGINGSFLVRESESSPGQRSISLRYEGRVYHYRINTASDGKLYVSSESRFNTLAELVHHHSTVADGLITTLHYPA
UniProt P06241, residues 149-246: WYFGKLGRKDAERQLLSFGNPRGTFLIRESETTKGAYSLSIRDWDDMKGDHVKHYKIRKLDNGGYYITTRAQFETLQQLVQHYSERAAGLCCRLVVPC
UniProt P07947, residues 158-255: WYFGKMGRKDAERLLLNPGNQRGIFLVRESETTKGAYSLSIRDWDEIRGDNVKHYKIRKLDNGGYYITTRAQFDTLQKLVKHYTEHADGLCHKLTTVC

Key:
Assay in all cases: peptide or protein array; GST-fused domains (122 SH2; 70 PTB, PH, HYB, C2) arrayed on nitrocellulose-coated glass slides; probed with biotinylated peptides, detected with Cy3-labeled streptavidin; both purified
[1] = target: T1, Abl2 SH2 domain (GST fusion on the protein domain array) (UniProt P42684)
T1 sequence: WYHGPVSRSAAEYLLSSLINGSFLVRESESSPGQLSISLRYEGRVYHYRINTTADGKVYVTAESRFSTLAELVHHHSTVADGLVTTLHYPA

[2] = target: Nck2 domain (GST fusion on the protein domain array) (UniProt O43639)
[3] = target: Abl1 SH2 domain (GST fusion on the protein domain array) (UniProt P00519)
[4] = target: Fyn SH2 domain (GST fusion on the protein domain array) (UniProt P06241)
[5] = target: Yes SH2 domain (GST fusion on the protein domain array) (UniProt P07947)

Measured: binding

B1: phosphorylated Pdlim5 DUF-domain peptide IVERYTEF[pY]…-biotin (peptide)
peptide: IVERYTEFYHVPTHSDASK
modifications: phosphotyrosine at Y251 (ninth residue of the peptide); biotin at the C-terminus
binds: all assays above
